Read-outs that look alike come from different tables or passages of the source. No constants are given. Whether binding was seen depends on the method and setting. In cells and extracts the contact can be indirect. Some results given as binding are weak or reduced against the parent protein; the word gives no strength. Tags and fused reporters may be left off the sequences shown.

Chains of the proteins cited; added tags and fusions are not shown.
UniProt Q9UNS1: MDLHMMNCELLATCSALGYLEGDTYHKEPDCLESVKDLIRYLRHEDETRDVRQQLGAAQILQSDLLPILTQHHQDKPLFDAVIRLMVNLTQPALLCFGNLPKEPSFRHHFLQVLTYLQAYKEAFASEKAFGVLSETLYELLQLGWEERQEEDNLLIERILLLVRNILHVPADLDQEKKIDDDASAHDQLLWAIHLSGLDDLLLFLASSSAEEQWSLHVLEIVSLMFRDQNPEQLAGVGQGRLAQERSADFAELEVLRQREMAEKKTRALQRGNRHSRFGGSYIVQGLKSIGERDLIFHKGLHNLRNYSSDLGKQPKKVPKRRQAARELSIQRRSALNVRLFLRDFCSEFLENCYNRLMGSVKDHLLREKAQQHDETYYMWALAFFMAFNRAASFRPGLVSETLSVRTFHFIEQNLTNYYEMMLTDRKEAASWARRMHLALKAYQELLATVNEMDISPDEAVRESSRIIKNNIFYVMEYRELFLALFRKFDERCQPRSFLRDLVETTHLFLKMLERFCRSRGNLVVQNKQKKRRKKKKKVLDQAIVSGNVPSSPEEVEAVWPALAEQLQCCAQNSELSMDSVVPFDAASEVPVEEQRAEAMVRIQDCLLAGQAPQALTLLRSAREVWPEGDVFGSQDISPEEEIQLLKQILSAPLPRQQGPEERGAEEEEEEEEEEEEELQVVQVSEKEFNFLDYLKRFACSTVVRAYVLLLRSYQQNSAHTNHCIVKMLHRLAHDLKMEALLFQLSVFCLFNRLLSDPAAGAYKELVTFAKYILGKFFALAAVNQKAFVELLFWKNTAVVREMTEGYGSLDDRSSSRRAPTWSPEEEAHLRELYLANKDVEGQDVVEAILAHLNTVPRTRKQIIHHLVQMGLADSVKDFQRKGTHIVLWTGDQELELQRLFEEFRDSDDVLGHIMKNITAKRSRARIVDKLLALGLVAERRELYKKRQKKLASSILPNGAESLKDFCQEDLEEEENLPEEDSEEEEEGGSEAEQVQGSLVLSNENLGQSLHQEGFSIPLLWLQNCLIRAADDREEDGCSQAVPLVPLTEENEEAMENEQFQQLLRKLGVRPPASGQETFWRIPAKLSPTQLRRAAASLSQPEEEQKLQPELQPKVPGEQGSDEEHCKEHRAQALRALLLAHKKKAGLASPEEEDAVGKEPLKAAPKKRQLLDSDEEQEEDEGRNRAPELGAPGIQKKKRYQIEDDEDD

Data on three molecules can be found in paper PMC6179184, “Interaction of the Warsaw breakage syndrome DNA helicase DDX11 with the replication fork-protection factor Timeless promotes sister chromatid cohesion” (PLoS Genetics, 2018).

What all share (assay): co-IP; whole cell extracts of HEK 293T cells transiently expressing DDX11-3xFlag (wild type or mutants), anti-Flag M2 agarose beads, 50 mM Tris-HCl pH 8.0, 150 mM NaCl, 0.25% Triton X-100, 10% glycerol, 2 hr at 4 C, elution with Flag peptide; Western blot of endogenous partners
In experiment [1] the target is T1, DDX11-3xFlag wild type (human) (UniProt Q96FC9).
T1 sequence: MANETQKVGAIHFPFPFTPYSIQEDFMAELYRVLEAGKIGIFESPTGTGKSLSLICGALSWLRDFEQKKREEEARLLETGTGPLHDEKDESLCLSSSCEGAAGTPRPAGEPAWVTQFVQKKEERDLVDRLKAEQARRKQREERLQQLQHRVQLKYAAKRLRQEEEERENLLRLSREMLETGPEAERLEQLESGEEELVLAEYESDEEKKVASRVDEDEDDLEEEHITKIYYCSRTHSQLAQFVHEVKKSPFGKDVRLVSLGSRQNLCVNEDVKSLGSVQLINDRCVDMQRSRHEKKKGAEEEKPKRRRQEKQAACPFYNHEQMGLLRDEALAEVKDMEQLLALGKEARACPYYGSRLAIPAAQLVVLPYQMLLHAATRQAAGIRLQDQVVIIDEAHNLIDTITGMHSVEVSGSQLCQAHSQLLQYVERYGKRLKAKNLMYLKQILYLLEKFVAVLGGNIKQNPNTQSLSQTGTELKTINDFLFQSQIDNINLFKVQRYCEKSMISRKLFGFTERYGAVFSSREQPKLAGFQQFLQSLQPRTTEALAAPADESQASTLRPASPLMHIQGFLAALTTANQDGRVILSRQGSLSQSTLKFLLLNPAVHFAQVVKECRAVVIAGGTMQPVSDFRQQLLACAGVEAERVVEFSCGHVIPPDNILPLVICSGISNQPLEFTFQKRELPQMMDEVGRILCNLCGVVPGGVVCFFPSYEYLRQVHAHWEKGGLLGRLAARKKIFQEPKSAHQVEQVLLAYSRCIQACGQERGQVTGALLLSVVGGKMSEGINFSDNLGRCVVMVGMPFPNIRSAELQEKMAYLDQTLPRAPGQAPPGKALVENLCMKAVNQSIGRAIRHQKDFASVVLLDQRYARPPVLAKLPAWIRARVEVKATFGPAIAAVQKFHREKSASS

Experiment [2] concerns the target T2, DDX11-3xFlag KAE mutant (human) (UniProt Q96FC9).
T2 sequence: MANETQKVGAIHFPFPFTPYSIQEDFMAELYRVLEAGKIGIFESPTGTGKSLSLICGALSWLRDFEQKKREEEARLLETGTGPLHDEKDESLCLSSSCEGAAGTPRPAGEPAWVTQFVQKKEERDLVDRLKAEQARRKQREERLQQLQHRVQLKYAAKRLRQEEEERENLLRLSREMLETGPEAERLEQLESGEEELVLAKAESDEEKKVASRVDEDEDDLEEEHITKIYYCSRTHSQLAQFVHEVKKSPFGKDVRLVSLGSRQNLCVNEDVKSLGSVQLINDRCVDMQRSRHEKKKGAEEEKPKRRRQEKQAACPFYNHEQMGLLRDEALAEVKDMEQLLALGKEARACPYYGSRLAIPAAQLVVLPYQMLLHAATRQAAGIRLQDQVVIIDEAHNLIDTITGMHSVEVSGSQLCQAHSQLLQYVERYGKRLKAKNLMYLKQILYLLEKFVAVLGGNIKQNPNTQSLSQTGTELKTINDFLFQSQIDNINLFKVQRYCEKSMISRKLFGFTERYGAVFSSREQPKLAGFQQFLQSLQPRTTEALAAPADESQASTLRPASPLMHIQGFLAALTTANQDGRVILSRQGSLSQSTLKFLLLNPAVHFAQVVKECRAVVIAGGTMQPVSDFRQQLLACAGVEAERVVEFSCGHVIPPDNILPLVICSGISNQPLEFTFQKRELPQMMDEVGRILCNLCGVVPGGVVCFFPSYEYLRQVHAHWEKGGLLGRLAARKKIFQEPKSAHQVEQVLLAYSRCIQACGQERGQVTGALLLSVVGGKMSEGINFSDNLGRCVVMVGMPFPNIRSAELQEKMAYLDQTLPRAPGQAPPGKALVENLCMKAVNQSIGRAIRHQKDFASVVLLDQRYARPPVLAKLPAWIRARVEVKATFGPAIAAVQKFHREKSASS

Experiment [3] has as its target T1, DDX11-3xFlag wild type (human). The source holds these as a separate data set.

“endogenous Timeless (HEK 293T) (from UniProt Q9UNS1 1-1208)”: in experiment [1], the binding result is on record as “binds”.

B1: endogenous WDHD1 (HEK 293T) (protein, UniProt O75717 1-1129)
chain: MPATRKPMRYGHTEGHTEVCFDDSGSFIVTCGSDGDVRIWEDLDDDDPKFINVGEKAYSCALKSGKLVTAVSNNTIQVHTFPEGVPDGILTRFTTNANHVVFNGDGTKIAAGSSDFLVKIVDVMDSSQQKTFRGHDAPVLSLSFDPKDIFLASASCDGSVRVWQISDQTCAISWPLLQKCNDVINAKSICRLAWQPKSGKLLAIPVEKSVKLYRRESWSHQFDLSDNFISQTLNIVTWSPCGQYLAAGSINGLIIVWNVETKDCMERVKHEKGYAICGLAWHPTCGRISYTDAEGNLGLLENVCDPSGKTSSSKVSSRVEKDYNDLFDGDDMSNAGDFLNDNAVEIPSFSKGIINDDEDDEDLMMASGRPRQRSHILEDDENSVDISMLKTGSSLLKEEEEDGQEGSIHNLPLVTSQRPFYDGPMPTPRQKPFQSGSTPLHLTHRFMVWNSIGIIRCYNDEQDNAIDVEFHDTSIHHATHLSNTLNYTIADLSHEAILLACESTDELASKLHCLHFSSWDSSKEWIIDLPQNEDIEAICLGQGWAAAATSALLLRLFTIGGVQKEVFSLAGPVVSMAGHGEQLFIVYHRGTGFDGDQCLGVQLLELGKKKKQILHGDPLPLTRKSYLAWIGFSAEGTPCYVDSEGIVRMLNRGLGNTWTPICNTREHCKGKSDHYWVVGIHENPQQLRCIPCKGSRFPPTLPRPAVAILSFKLPYCQIATEKGQMEEQFWRSVIFHNHLDYLAKNGYEYEESTKNQATKEQQELLMKMLALSCKLEREFRCVELADLMTQNAVNLAIKYASRSRKLILAQKLSELAVEKAAELTATQVEEEEEEEDFRKKLNAGYSNTATEWSQPRFRNQVEEDAEDSGEADDEEKPEIHKPGQNSFSKSTNSSDVSAKSGAVTFSSQGRVNPFKVSASSKEPAMSMNSARSTNILDNMGKSSKKSTALSRTTNNEKSPIIKPLIPKPKPKQASAASYFQKRNSQTNKTEEVKEENLKNVLSETPAICPPQNTENQRPKTGFQMWLEENRSNILSDNPDFSDEADIIKEGMIRFRVLSTEERKVWANKAKGETASEGTEAKKRKRVVDESDETENQEEKAKENLNLSKKQKPLDFSTNQKLSAFAFKQE
B1: the binding result in experiment [2] and in experiment [3] was “binds” each time.

B2: endogenous Cdc45 (HEK 293T) (protein, UniProt O75419 1-566)
chain: MFVSDFRKEFYEVVQSQRVLLFVASDVDALCACKILQALFQCDHVQYTLVPVSGWQELETAFLEHKEQFHYFILINCGANVDLLDILQPDEDTIFFVCDTHRPVNVVNVYNDTQIKLLIKQDDDLEVPAYEDIFRDEEEDEEHSGNDSDGSEPSEKRTRLEEEIVEQTMRRRQRREWEARRRDILFDYEQYEYHGTSSAMVMFELAWMLSKDLNDMLWWAIVGLTDQWVQDKITQMKYVTDVGVLQRHVSRHNHRNEDEENTLSVDCTRISFEYDLRLVLYQHWSLHDSLCNTSYTAARFKLWSVHGQKRLQEFLADMGLPLKQVKQKFQAMDISLKENLREMIEESANKFGMKDMRVQTFSIHFGFKHKFLASDVVFATMSLMESPEKDGSGTDHFIQALDSLSRSNLDKLYHGLELAKKQLRATQQTIASCLCTNLVISQGPFLYCSLMEGTPDVMLFSRPASLSLLSKHLLKSFVCSTKNRRCKLLPLVMAAPLSMEHGTVTVVGIPPETDSSDRKNFFGRAFEKAAESTSSRMLHNHFDLSVIELKAEDRSKFLDALISLLS
For B2, the binding result in experiment [2] and in experiment [3] was “binds” throughout.
